# Measurements taken from PubChem BioAssay AID2685 (National Center for Advancing Translational Sciences (NCATS), 2010).
# The other results are listed elsewhere or left out. The main result of the screen is listed elsewhere. These columns were measured beside it and carry no call. The list favours compounds with an active or inconclusive main result. Words in brackets tell the shape of the fitted curve; partial curves, single points and poor fits give uncertain potencies.
# Test: qHTS Assay for Lipid Storage Modulators in Drosophila S3 Cells;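 for cell number change: cells counted by Cell Tracker Red CMTPX staining in the red channel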
# Settings: BODIPY lipid droplet fluorescence, 18-24 h; for cell number change: measured here: cell count max response, cells fed with added oleic acid
# Outline: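 Drosophila S3 cells got compounds at several concentrations plus oleic acid (400 uM solution). Laser-scanning cytometry with 488 nm excitation read lipid droplets at 500-530 nm and cells at 575-640 nm. Percent activity was relative to 20 uM Triacsin C.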
# [1] = measured here: cell number channel AC50, cells fed with added oleic acid
# [2] = measured here: lipid fluorescence (Fed channel) AC50, cells fed with added oleic acid
SMILES,cell number change [%],AC50 [1],AC50 [2]
Cc1ccc(CNC(=O)C2CC(c3ccccc3F)=NO2)cc1 (centres undefined),38.3,"13 µM [rising, partial curve]",–
COc1ccc(-c2csc(Cc3nc(O)cs3)n2)cc1,27.8,"0.231 µM [rising, full curve, poor fit]","0.326 µM [rising, full curve]"
O=C(/C=C/c1ccc(F)cc1)Nc1nc2ccccc2[nH]1,–,"0.00461 µM [rising, full curve, poor fit]","0.00461 µM [rising, full curve, poor fit]"
O=C(NC(N1CCOCC1)C(Cl)(Cl)Cl)c1ccccc1Cl (centres undefined),-52.7,"29.1 µM [falling, single point]",–
Cc1ccc(S(=O)(=O)N2CCN(C(=O)c3cc4c(C)nn(-c5ccccc5)c4s3)CC2)cc1,–,"3.26 µM [rising, partial curve, poor fit]","5.8 µM [rising, single point]"
COc1ccc(CC(=O)N2N=C(C)CC2(O)c2cccnc2)cc1 (centres undefined),8.83,–,"29.1 µM [falling, single point]"
Cc1cc(NC(=O)CC23CC4CC(C2)CC(CC(=O)Nc2cc(C)on2)(C4)C3)no1,-1.89,–,"2.31 µM [rising, partial curve]"
Cc1ccc(C(=O)COC(=O)CNC(=O)CN2C(=O)c3ccccc3C2=O)cc1,10.3,–,"18.4 µM [falling, single point]"
CCCN(CC(=O)Nc1ccccc1OC)C(=O)c1cc(S(=O)(=O)NCc2ccccc2)ccc1C,22.2,–,"35.5 µM [rising, single point]"
O=C(Nc1cccc2ccccc12)c1ccc([N+](=O)[O-])o1,15,–,–
COc1ccc(CCNC(=O)C(C)OC(=O)c2cccs2)cc1OC (centres undefined),15.3,–,"29.1 µM [falling, single point]"
CC(C)CC(=O)OCc1cn(-c2ccccc2)nn1,5.9,–,"29.1 µM [rising, single point]"
CC(C)(C)c1cc(-c2n[nH]c(=S)n2-c2ccc(Cl)cc2)n[nH]1,-9.59,–,–
CN1C(=CC=C2C=C(I)C(=O)C(I)=C2)C(C)(C)c2ccccc21,-97.2,"1.03 µM [falling, full curve]","0.651 µM [falling, full curve]"
CN(CCOc1ccccc1)C(=O)c1cc(COc2c(F)cccc2F)on1,10.1,–,–
CCCC[n+]1ccn(-c2nc3ccccc3nc2[N-]S(=O)(=O)c2ccc(Cl)cc2)c1,45.7,"0.0259 µM [rising, full curve, poor fit]","4.11 µM [rising, full curve]"
O=C(COc1ccccc1Cl)NNC(=O)c1ccc2c(=O)n3c(nc2c1)CCC3,19.2,–,"4.11 µM [falling, single point]"
CN1CCN(C(=O)/C(=C/c2ccccc2)c2ccccc2)CC1,-30.9,"29.1 µM [falling, single point]","0.92 µM [falling, full curve, poor fit]"
O=C(/C=C/c1ccccc1)c1c[nH]c2ccccc12,21.7,–,"0.231 µM [rising, full curve, poor fit]"

SMILES,cell number change [%],AC50 [1],AC50 [2]
Cc1csc(Nc2ccc(Cl)cc2)[n+]1-c1ccc(Cl)cc1,21.2,–,–
COc1ccc(/C=C(\NC(=O)c2cccs2)C(=O)NC(C)(C)C)cc1OC,8.11,–,"4.61 µM [rising, single point]"
CC12CC(c3ccccc3O1)C(C(=O)NCc1ccccc1)C(=O)N2 (centres undefined),–,–,"20.6 µM [falling, partial curve]"
COc1ccccc1C1=NOC(C)(c2sc(-c3ccc(Cl)cc3)nc2C)C1 (centres undefined),17.6,–,"8.2 µM [rising, partial curve]"
CC(=O)c1ccc(NC(=O)CN2C(=O)NC(C)(C3CCCCC3)C2=O)cc1 (centres undefined),-3.61,–,"2.06 µM [falling, partial curve]"
O=C(OCc1cnc(Cl)s1)c1cccc(Cl)c1,68.8,"29.1 µM [rising, partial curve, poor fit]","29.1 µM [rising, partial curve, poor fit]"
Cc1ccc(C(=O)NC(=S)NNC(=O)CC#N)cc1,-18.5,–,"13 µM [falling, single point]"
O=C(O)C1CCCCC1C(=O)NCCCN1CCCC1=O (centres undefined),29.3,–,"3.26 µM [rising, full curve, poor fit]"
Fc1ccc(-c2[nH]ncc2CN2CCN(c3ccc(F)cc3)CC2)cc1,-41.3,"7.31 µM [falling, partial curve]","8.2 µM [falling, partial curve, poor fit]"
CCOC(=O)Nc1nnc(CCc2ccccc2)s1,-30,"29.1 µM [falling, partial curve, poor fit]","6.51 µM [falling, partial curve]"
COc1cc(/C=N/NC(=O)c2ccc(Cl)cc2)ccc1OCC(=O)N1CC(C)OC(C)C1 (centres undefined),33,"29.1 µM [rising, single point]",–
Cc1cccc(OCC(=O)Nc2ccc(C(=O)O)cc2NC(=O)COc2cccc(C)c2)c1,6.06,–,–
COc1ccc(OC)c(-c2nc(C(N)=O)c3[nH]c(=O)n(-c4ccc(F)cc4)c3n2)c1,-2.58,–,–
O=C(CNC(=O)[C@@H]1Cc2ccccc2CN1)NCc1ccco1,22,–,–
Nc1ccc2oc(-c3cccc4ccccc34)nc2c1,-4.37,–,"29.1 µM [rising, single point]"
Cc1ccc(NC(=O)Cn2cc(C(=O)C3CC3)c3ccccc32)c(C)c1,85.7,"29.1 µM [rising, single point]","29.1 µM [rising, single point]"
COc1ccc(C2CC(c3cccs3)=NN2C(=O)CN2CCCCC2)cc1 (centres undefined),–,"0.0259 µM [falling, full curve, poor fit]","0.58 µM [falling, single point]"
O=C(COC(=O)CCc1ccccc1)Nc1ncc(Cl)cc1Cl,-0.193,"6.51 µM [falling, single point]",–

# An excerpt from above, limited to AC50 [2] and cell number change [%]:
SMILES	AC50 [2]	cell number change [%]
CC(=O)c1ccc(NC(=O)CN2C(=O)NC(C)(C3CCCCC3)C2=O)cc1 (centres undefined)	2.06 µM [falling, partial curve]	-3.61
Cc1ccc(C(=O)NC(=S)NNC(=O)CC#N)cc1	13 µM [falling, single point]	-18.5
